PubChem BioAssay AID1224830 | NIAID, 2016

- Purpose: 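Regulators of TLR4 signalling towards TNF-alpha in macrophage-like cells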 (primary screen)
- Cells: human THP-1 monocytic leukaemia cells, TNF dual-luciferase reporter clone, PMA-differentiated to macrophage-like cells
- Knock-down reagent: siRNA pool against human genes, 50 nM
- Time to read-out: LPS for 4 h, given about 3 days after siRNA transfection
- Treatment: bacterial LPS (TLR4 ligand), 10 ng/ml
- Read-out: 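TNF firefly reporter luminescence divided by renilla, normalised to the plate median, then turned into a robust z-score for each replicate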
- Scale: TNF reporter robust z-score: higher = stronger TNF reporter response to LPS
- Active means: 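a well is active when its z-score exceeds 2.8 or falls below -1.5; control wells carry no call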
Shown is one part, drawn at random, of about 18,000 reagents tested. About 2,900 of all reagents (16%) were called active. 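Calls are made per well; low scores hint the gene aids the LPS response, high scores that it dampens it.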 Repeated entries: four replicate wells of each siRNA pool. Reagent sequences are not shown.

gene,PubChem SID,TNF reporter robust z-score,call
KCNIP3,SID315456292,1.39,inactive
KCNIP3,SID315456292,-0.78,inactive
KCNIP3,SID315456292,2.02,inactive
KCNIP3,SID315456292,2.36,inactive
GTSF1,SID315461521,-0.95,inactive
GTSF1,SID315461521,-0.17,inactive
GTSF1,SID315461521,-0.28,inactive
GTSF1,SID315461521,0.16,inactive
ELP3,SID315457437,-1.17,inactive
ELP3,SID315457437,0.82,inactive
ELP3,SID315457437,0.83,inactive
ELP3,SID315457437,2.07,inactive
DDIT3,SID315448271,0.67,inactive
DDIT3,SID315448271,2.22,inactive
DDIT3,SID315448271,1.76,inactive
DDIT3,SID315448271,3.01,active
PGAM2,SID315450543,-0.89,inactive
PGAM2,SID315450543,-0.67,inactive
PGAM2,SID315450543,-0.83,inactive
PGAM2,SID315450543,-0.49,inactive
FGF10,SID315448681,-1.71,active
FGF10,SID315448681,-0.68,inactive
FGF10,SID315448681,-1.44,inactive
XPOT,SID315454724,0.2,inactive
XPOT,SID315454724,1.39,inactive
XPOT,SID315454724,0.32,inactive
XPOT,SID315454724,1.2,inactive
PON1,SID315450702,-0.01,inactive
PON1,SID315450702,1.97,inactive
PON1,SID315450702,0.65,inactive
PON1,SID315450702,0.31,inactive
VEGFB,SID315452111,0.45,inactive
VEGFB,SID315452111,0.66,inactive
VEGFB,SID315452111,0.23,inactive
VEGFB,SID315452111,0.28,inactive
SLC22A13,SID315453249,0.15,inactive
SLC22A13,SID315453249,0.02,inactive
SLC22A13,SID315453249,0.59,inactive
RASD2,SID315455324,0.79,inactive
RASD2,SID315455324,1.3,inactive
RASD2,SID315455324,1.29,inactive
RASD2,SID315455324,0.96,inactive
GJA3,SID315448899,0.04,inactive
GJA3,SID315448899,1.75,inactive
GJA3,SID315448899,1.21,inactive
GJA3,SID315448899,4.67,active

Continued; the last 6 above are carried over.
gene,PubChem SID,TNF reporter robust z-score,call
RASD2,SID315455324,1.29,inactive
RASD2,SID315455324,0.96,inactive
GJA3,SID315448899,0.04,inactive
GJA3,SID315448899,1.75,inactive
GJA3,SID315448899,1.21,inactive
GJA3,SID315448899,4.67,active
TRAPPC11,SID315458740,-1.32,inactive
TRAPPC11,SID315458740,-0.92,inactive
TRAPPC11,SID315458740,-0.91,inactive
TRAPPC11,SID315458740,-0.83,inactive
DAZ2,SID315458241,0.13,inactive
DAZ2,SID315458241,0.32,inactive
DAZ2,SID315458241,0.97,inactive
DAZ2,SID315458241,-0.14,inactive
OR1B1,SID315464212,0.44,inactive
OR1B1,SID315464212,0.97,inactive
OR1B1,SID315464212,0.81,inactive
OR1B1,SID315464212,0.5,inactive
IPO7,SID315454163,-1.01,inactive
IPO7,SID315454163,0.42,inactive
IPO7,SID315454163,-1.31,inactive
IPO7,SID315454163,-0.17,inactive
NAA80,SID315455440,-0.17,inactive
NAA80,SID315455440,-1.14,inactive
NAA80,SID315455440,-1.24,inactive
NAA80,SID315455440,-0.13,inactive
TCF19,SID315451794,5.08,active
TCF19,SID315451794,5.01,active
TCF19,SID315451794,2.29,inactive
TCF19,SID315451794,2.44,inactive
SLC35A4,SID315461206,-0.77,inactive
SLC35A4,SID315461206,-0.75,inactive
SLC35A4,SID315461206,-0.41,inactive
SLC35A4,SID315461206,-1.26,inactive
GOLGB1,SID315448969,0.22,inactive
GOLGB1,SID315448969,1.76,inactive
GOLGB1,SID315448969,1.13,inactive
GOLGB1,SID315448969,0.81,inactive
